Data published in article PMC3601965, “Conformational Change-Induced Repeat Domain Expansion Regulates Rap Phosphatase Quorum-Sensing Signal Receptors” (PLoS Biology, 2013).
No constants are given. Whether binding was seen depends on the method and setting.

What was measured:
[1] = target: T1, RapJ (B. subtilis strain 168), O34327; assay: AUC; sedimentation equilibrium, RapJ alone at 50 µM in 20 mM Tris-HCl pH 8.0, 150 mM KCl, 5 mM MgCl2, 5 mM DTT, 13,000 rpm; both purified; details: remark: other sources report otherwise
T1 chain: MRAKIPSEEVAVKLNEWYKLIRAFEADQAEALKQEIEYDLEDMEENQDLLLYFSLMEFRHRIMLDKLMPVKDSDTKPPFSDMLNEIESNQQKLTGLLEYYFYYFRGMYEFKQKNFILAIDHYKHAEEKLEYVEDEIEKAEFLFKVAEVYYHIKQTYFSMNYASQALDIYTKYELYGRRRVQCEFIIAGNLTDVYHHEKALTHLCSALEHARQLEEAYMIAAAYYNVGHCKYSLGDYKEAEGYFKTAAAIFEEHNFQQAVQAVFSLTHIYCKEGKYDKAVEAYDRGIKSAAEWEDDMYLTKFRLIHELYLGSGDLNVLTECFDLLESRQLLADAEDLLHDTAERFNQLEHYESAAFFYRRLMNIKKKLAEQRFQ

[2] = target: T1, RapJ (B. subtilis strain 168), O34327; assay: AUC; sedimentation equilibrium, RapJ at 50 µM with PhrC at 500 µM in 20 mM Tris-HCl pH 8.0, 150 mM KCl, 5 mM MgCl2, 5 mM DTT, 13,000 rpm; both purified; details: remark: other sources report otherwise

B1: RapJ, O34327 1-373 (enzyme)
chain: MRAKIPSEEVAVKLNEWYKLIRAFEADQAEALKQEIEYDLEDMEENQDLLLYFSLMEFRHRIMLDKLMPVKDSDTKPPFSDMLNEIESNQQKLTGLLEYYFYYFRGMYEFKQKNFILAIDHYKHAEEKLEYVEDEIEKAEFLFKVAEVYYHIKQTYFSMNYASQALDIYTKYELYGRRRVQCEFIIAGNLTDVYHHEKALTHLCSALEHARQLEEAYMIAAAYYNVGHCKYSLGDYKEAEGYFKTAAAIFEEHNFQQAVQAVFSLTHIYCKEGKYDKAVEAYDRGIKSAAEWEDDMYLTKFRLIHELYLGSGDLNVLTECFDLLESRQLLADAEDLLHDTAERFNQLEHYESAAFFYRRLMNIKKKLAEQRFQ
binding [1]: no binding (tested: 50 µM)
binding [2]: no binding (tested: 50 µM)
